Data as given in PubChem BioAssay AID1259289 (Sanger Institute, 2017)

- Assay: 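Find kinases whose loss adds to targeted drugs in killing bowel cancer cells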 (primary screen)
- System: human LS513 colorectal cancer cells
- Knock-down reagent: siRNA pool against human genes
- Treatment: anchor drug BYL719 at 1 µM, cetuximab at 5 µg/ml or trametinib at 10 nM, or DMSO vehicle alone; exposure time not given
- Read-out: 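Cell survival as a fraction of the non-targeting pool, replicate means; robust z-score for silencing alone under DMSO; synergy score for each of BYL719, cetuximab and trametinib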
- Scale: robust z-score, siRNA alone (DMSO): higher = more viable cells; strongly negative means essential
- Call rule: 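Called essential when silencing alone under DMSO gives a robust z-score below -3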
- Meaning of the calls: active = essential (knock-down alone); inactive = not essential
Here is an unselected part of 794 deposited reagents. Over the whole deposit, 16 (2%) were called active. 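Active marks cell loss from silencing alone; drug synergy shows only in the synergy scores, not the calls.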 Unmarked entries are inactive. Not all columns of the deposit are shown. No sequences are given here. The record does not give: the amount of reagent, the time to read-out.

| target gene | robust z-score, siRNA alone (DMSO) |
| --- | --- |
| NEK9 | 0.28 |
| FCSK | -0.503 |
| CDK20 | 0.561 |
| BRAF | -0.205 |
| PRKCA | 0.561 |
| PDK2 | -1.05 |
| PIKFYVE | 0.561 |
| MYO3A | -0.408 |
| RPS6KL1 | 0.561 |
| TGFBR3 | 0.561 |
| DGKA | -3.11 (active) |
| STK32B | 0.561 |
| PDPK1 | -0.113 |
| CSNK2A1 | 0.561 |
| NEK10 | 0.00998 |
| LMTK2 | -0.154 |
| PKLR | -0.0178 |
| MARK1 | -0.411 |
| CIB2 | -3.73 (active) |
| BMP2K | -0.271 |

Entries listed so far called active:
| target gene | robust z-score, siRNA alone (DMSO) |
| --- | --- |
| DGKA | -3.11 (active) |
| CIB2 | -3.73 (active) |

Further records:
| target gene | robust z-score, siRNA alone (DMSO) |
| --- | --- |
| CDK13 | 0.561 |
| PRKAA2 | -0.653 |
| CDK14 | 0.561 |
| FGFR2 | 0.147 |
| CDKN1B | -0.255 |
| PRKCSH | 0.561 |
| AMER1 | 0.561 |
| CAMK2A | 0.532 |
| MAPK6 | 0.209 |
| MKNK1 | 0.561 |
| SIK2 | -0.543 |
| STK35 | 0.561 |
| PDIK1L | 0.561 |
| CDKN2D | -2 |
| EIF2AK1 | -0.17 |
| ULK4 | 0.0102 |
| PRKCQ | -0.0627 |
| STK40 | 0.561 |
| CSNK1A1 | 0.561 |
| ALPK2 | 0.561 |
| STK17A | -2.31 |
| SYK | -3.99 (active) |
| MAGI1 | -1.74 |
| CPNE3 | 0.26 |
| CDC7 | -1.88 |
| PRKACB | -0.57 |
| TPK1 | -0.268 |
| ZAP70 | 0.561 |
| TCF7L2 | 0.561 |
| BRD2 | 0.561 |
